Experimental data taken from PMC12663160.

Protein sequences, listed by entry. Tags and fused reporters are not part of them. Residues count along the entry.
UniProt P01375, residues 77-233: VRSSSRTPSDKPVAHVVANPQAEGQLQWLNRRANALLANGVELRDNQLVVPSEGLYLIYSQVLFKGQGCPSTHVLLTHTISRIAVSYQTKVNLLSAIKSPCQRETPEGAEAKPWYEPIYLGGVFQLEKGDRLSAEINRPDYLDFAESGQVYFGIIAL
UniProt Q9UHD2: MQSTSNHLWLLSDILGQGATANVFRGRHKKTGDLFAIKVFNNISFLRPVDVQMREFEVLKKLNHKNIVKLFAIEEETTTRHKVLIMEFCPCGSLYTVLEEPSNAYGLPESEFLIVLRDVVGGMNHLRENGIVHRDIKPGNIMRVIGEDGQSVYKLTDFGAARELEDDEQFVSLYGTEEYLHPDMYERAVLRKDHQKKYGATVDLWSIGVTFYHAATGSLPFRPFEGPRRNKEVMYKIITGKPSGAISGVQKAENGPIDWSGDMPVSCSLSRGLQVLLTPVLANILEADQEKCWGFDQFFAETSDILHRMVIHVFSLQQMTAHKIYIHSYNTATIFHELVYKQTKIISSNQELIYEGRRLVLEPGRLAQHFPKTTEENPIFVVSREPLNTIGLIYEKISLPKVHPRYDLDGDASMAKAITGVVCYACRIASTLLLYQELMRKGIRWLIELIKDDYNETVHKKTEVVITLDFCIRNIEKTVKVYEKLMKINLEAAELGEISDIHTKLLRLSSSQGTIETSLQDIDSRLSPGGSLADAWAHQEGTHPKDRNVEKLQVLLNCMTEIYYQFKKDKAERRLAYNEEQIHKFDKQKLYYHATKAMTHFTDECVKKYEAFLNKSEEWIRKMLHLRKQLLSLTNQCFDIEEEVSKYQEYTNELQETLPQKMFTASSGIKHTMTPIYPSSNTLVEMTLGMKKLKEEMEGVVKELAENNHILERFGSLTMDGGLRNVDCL

B1: IKKε (protein, UniProt Q14164 1-716)
chain: MQSTANYLWHTDDLLGQGATASVYKARNKKSGELVAVKVFNTTSYLRPREVQVREFEVLRKLNHQNIVKLFAVEETGGSRQKVLVMEYCSSGSLLSVLESPENAFGLPEDEFLVVLRCVVAGMNHLRENGIVHRDIKPGNIMRLVGEEGQSIYKLTDFGAARELDDDEKFVSVYGTEEYLHPDMYERAVLRKPQQKAFGVTVDLWSIGVTLYHAATGSLPFIPFGGPRRNKEIMYRITTEKPAGAIAGAQRRENGPLEWSYTLPITCQLSLGLQSQLVPILANILEVEQAKCWGFDQFFAETSDILQRVVVHVFSLSQAVLHHIYIHAHNTIAIFQEAVHKQTSVAPRHQEYLFEGHLCVLEPSVSAQHIAHTTASSPLTLFSTAIPKGLAFRDPALDVPKFVPKVDLQADYNTAKGVLGAGYQALRLARALLDGQELMFRGLHWVMEVLQATCRRTLEVARTSLLYLSSSLGTERFSSVAGTPEIQELKAAAELRSRLRTLAEVLSRCSQNITETQESLSSLNRELVKSRDQVHEDRSIQQIQCCLDKMNFIYKQFKKSRMRPGLGYNEEQIHKLDKVNFSHLAKRLLQVFQEECVQKYQASLVTHGKRMRVVHETRNHLRLVGCSVAACNTEAQGVQESLSKLLEELSHQLLQDRAKGAQASPPPIAPYPSPTRKDLLLHMQELCEGMKLLASDLLDNNRIIERLNRVPAPPDV
B2: TAK1 (protein, UniProt O43318 1-606)
chain: MSTASAASSSSSSSAGEMIEAPSQVLNFEEIDYKEIEVEEVVGRGAFGVVCKAKWRAKDVAIKQIESESERKAFIVELRQLSRVNHPNIVKLYGACLNPVCLVMEYAEGGSLYNVLHGAEPLPYYTAAHAMSWCLQCSQGVAYLHSMQPKALIHRDLKPPNLLLVAGGTVLKICDFGTACDIQTHMTNNKGSAAWMAPEVFEGSNYSEKCDVFSWGIILWEVITRRKPFDEIGGPAFRIMWAVHNGTRPPLIKNLPKPIESLMTRCWSKDPSQRPSMEEIVKIMTHLMRYFPGADEPLQYPCQYSDEGQSNSATSTGSFMDIASTNTSNKSDTNMEQVPATNDTIKRLESKLLKNQAKQQSESGRLSLGASRGSSVESLPPTSEGKRMSADMSEIEARIAATTAYSKPKRGHRKTASFGNILDVPEIVISGNGQPRRRSIQDLTVTGTEPGQVSSRSSSPSVRMITTSGPTSEKPTRSHPWTPDDSTDTNGSDNSIPMAYLTLDHQLQPLAPCPNSKESMAVFEQHCKMAQEYMKVQTEIALLLQRKQELVAELDQDEKDQQNTSRLVQEHKKLLDENKSLSTYYQQCKKQLEVIRSQQQKRQGTS

target: biotinylated TNF (UniProt P01375); assay: affinity purification with mass spectrometry; BLM or D10 melanoma cells incubated with 100 ng/mL biotinylated TNF for 10 min, lysed (30 mM Tris-HCl pH 7.4, 120 mM NaCl, 2 mM EDTA, 2 mM KCl, 1% Triton X-100), streptavidin magnetic beads 1 h at 4 °C, LC-MS (DDA and SRM); unlabeled TNF as negative control; cells sgCtrl, sgTRAF2, sgRNF31 or sgTBK1+sgIKKε, with or without Birinapant or HOPIN-8; only the target purified

binding, binds:
TBK1 (from UniProt Q9UHD2 1-729), B1, B2

No constants are given. Whether binding was seen depends on the method and setting. Binding seen in cells or lysates may run through a third protein. These calls come from enrichment with a bait or labelling near it, and not all partners need be listed.
